Source: PMC7862700
The list shows a part of the results, in another mix than the full data. At the low end of the ranking the order means little.

These sequences were tested against T1, ELK1 (UniProt P19419) (assay: DAPPL (digital affinity profiling via proximity ligation, sequencing)). Details: 10 mM Tris-HCl pH 7.5, 50 mM NaCl, 1 mM DTT, 4% glycerol, room temperature, 30 min; GST-TFs on glutathione beads, 16-mer random dsDNA library, 0.1% …; high values mean tight binding; double strand, one strand shown; scale: fold enrichment (6-mer frequency, TF over GST control).
T1 sequence: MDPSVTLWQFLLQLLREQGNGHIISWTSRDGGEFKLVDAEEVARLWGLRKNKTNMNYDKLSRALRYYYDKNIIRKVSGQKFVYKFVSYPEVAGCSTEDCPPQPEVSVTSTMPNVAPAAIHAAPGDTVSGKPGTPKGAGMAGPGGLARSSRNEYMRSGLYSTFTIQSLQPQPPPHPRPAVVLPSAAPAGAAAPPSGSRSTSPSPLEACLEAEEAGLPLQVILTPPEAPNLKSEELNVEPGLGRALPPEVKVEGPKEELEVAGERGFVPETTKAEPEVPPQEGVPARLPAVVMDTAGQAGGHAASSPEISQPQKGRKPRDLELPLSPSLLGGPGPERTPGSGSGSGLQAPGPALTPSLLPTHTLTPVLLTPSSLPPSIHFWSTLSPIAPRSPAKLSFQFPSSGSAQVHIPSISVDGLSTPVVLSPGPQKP

Q: Which binding signal does the source give for AGTGCC here?
A: 0.973

Q: For CCTCAG, which binding signal is on record?
A: 1.23

Q: GCTCCG was tested. Which binding signal did it give?
A: 1.4

Q: How did the binding signal turn out when AGTCCC was run?
A: 1.06

Q: GTTCAA was tested. Which binding signal did it give?
A: 1.18

Q: With ATTATA as the sequence, how does the binding signal read?
A: 1.32

Q: For GTTAAA, which binding signal is on record?
A: 0.923

Q: How did the binding signal turn out when ACCGCT was run?
A: 1.12

Q: Which binding signal does the source give for CCCGCT here?
A: 1.31

Q: Which binding signal does the source give for CACCCT here?
A: 1.26

Q: Which binding signal does the source give for GTATCC here?
A: 1.9

Q: Which binding signal does the source give for CTCGTC here?
A: 1.27

Q: For TGGTCG, which binding signal is on record?
A: 0.968

Q: Which binding signal does the source give for CTTAAG here?
A: 1.11

Q: Which binding signal does the source give for AATCTA here?
A: 1.06

Q: For ATACGC, which binding signal is on record?
A: 1.14

Q: CGCCAC was tested. Which binding signal did it give?
A: 0.969

Q: With TTAATA as the sequence, how does the binding signal read?
A: 1.23

Q: For CCACTG, which binding signal is on record?
A: 1.11

Q: Which binding signal does the source give for TTCGAT here?
A: 1.23

Q: TAATCA was tested. Which binding signal did it give?
A: 1.14

Q: With AATATG as the sequence, how does the binding signal read?
A: 1.13

Q: Which binding signal does the source give for TATATC here?
A: 1.62

Q: With CAACTC as the sequence, how does the binding signal read?
A: 1.23

Q: Which binding signal does the source give for TAAGCC here?
A: 1.12

Q: Which binding signal does the source give for TCCGTA here?
A: 1.63

Q: GCTTGT was tested. Which binding signal did it give?
A: 0.956

Q: How did the binding signal turn out when TCCGAA was run?
A: 1.28

Q: GCGGAA was tested. Which binding signal did it give?
A: 1.33

Q: Which binding signal does the source give for CTGCTG here?
A: 1.26

Q: With TGATTG as the sequence, how does the binding signal read?
A: 1.16

Q: Which binding signal does the source give for CCCATA here?
A: 1.26

Q: ACTCGG was tested. Which binding signal did it give?
A: 0.848

Q: With AAGGCT as the sequence, how does the binding signal read?
A: 0.991

Q: For TCGCTG, which binding signal is on record?
A: 0.998

Q: Which binding signal does the source give for CTAGAA here?
A: 1

Q: How did the binding signal turn out when ACTGGA was run?
A: 0.961

Q: Which binding signal does the source give for GCAACT here?
A: 1.19

Q: For CTACGG, which binding signal is on record?
A: 1.27

Each sequence was assayed against T2, ETS2 (UniProt P15036) in the same assay as above. Details: 10 mM Tris-HCl pH 7.5, 50 mM NaCl, 1 mM DTT, 4% glycerol, room temperature, 30 min; GST-TFs on glutathione beads, 16-mer random dsDNA library, 0.1% …; high values mean tight binding; double strand, one strand shown; scale: fold enrichment (6-mer frequency, TF over GST control).
T2 sequence: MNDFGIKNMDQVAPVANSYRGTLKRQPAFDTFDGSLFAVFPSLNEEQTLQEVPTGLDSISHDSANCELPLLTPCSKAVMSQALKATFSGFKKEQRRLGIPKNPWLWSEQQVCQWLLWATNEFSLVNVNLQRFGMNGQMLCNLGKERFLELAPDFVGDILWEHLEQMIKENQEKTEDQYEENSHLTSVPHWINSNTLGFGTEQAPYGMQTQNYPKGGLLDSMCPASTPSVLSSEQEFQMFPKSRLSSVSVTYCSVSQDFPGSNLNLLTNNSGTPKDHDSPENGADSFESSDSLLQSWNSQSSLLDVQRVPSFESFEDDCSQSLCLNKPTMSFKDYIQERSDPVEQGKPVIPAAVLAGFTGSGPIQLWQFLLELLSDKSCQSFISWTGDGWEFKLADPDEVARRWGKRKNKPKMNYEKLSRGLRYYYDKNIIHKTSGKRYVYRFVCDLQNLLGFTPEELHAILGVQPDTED

Q: For AGTGCC, which binding signal is on record?
A: 0.999

Q: Which binding signal does the source give for CCTCAG here?
A: 1.25

Q: GCTCCG was tested. Which binding signal did it give?
A: 1.33

Q: AGTCCC was tested. Which binding signal did it give?
A: 0.965

Q: Which binding signal does the source give for GTTCAA here?
A: 1.14

Q: For ATTATA, which binding signal is on record?
A: 1.37

Q: For GTTAAA, which binding signal is on record?
A: 0.969

Q: ACCGCT was tested. Which binding signal did it give?
A: 1.1

Q: Which binding signal does the source give for CCCGCT here?
A: 1.22

Q: For CACCCT, which binding signal is on record?
A: 1.09

Q: For GTATCC, which binding signal is on record?
A: 1.84

Q: For CTCGTC, which binding signal is on record?
A: 1.46

Q: For TGGTCG, which binding signal is on record?
A: 0.956

Q: CTTAAG was tested. Which binding signal did it give?
A: 0.978

Q: How did the binding signal turn out when AATCTA was run?
A: 1.16

Q: For ATACGC, which binding signal is on record?
A: 1.11

Q: How did the binding signal turn out when CGCCAC was run?
A: 0.899

Q: How did the binding signal turn out when TTAATA was run?
A: 1.21

Q: How did the binding signal turn out when CCACTG was run?
A: 1.16

Q: With TTCGAT as the sequence, how does the binding signal read?
A: 1.33

Q: How did the binding signal turn out when TAATCA was run?
A: 1.14

Q: AATATG was tested. Which binding signal did it give?
A: 1.15

Q: With TATATC as the sequence, how does the binding signal read?
A: 1.64

Q: CAACTC was tested. Which binding signal did it give?
A: 1.26

Q: With TAAGCC as the sequence, how does the binding signal read?
A: 1.15

Q: Which binding signal does the source give for TCCGTA here?
A: 1.57

Q: With GCTTGT as the sequence, how does the binding signal read?
A: 1.07

Q: With TCCGAA as the sequence, how does the binding signal read?
A: 1.23

Q: GCGGAA was tested. Which binding signal did it give?
A: 1.42

Q: CTGCTG was tested. Which binding signal did it give?
A: 1.36

Q: Which binding signal does the source give for TGATTG here?
A: 1.01

Q: CCCATA was tested. Which binding signal did it give?
A: 1.29

Q: For ACTCGG, which binding signal is on record?
A: 0.989

Q: AAGGCT was tested. Which binding signal did it give?
A: 0.973

Q: How did the binding signal turn out when TCGCTG was run?
A: 1.12

Q: How did the binding signal turn out when CTAGAA was run?
A: 1.02

Q: Which binding signal does the source give for ACTGGA here?
A: 0.999

Q: With GCAACT as the sequence, how does the binding signal read?
A: 1.16

Q: For CTACGG, which binding signal is on record?
A: 1.16
